{"source": "PubChem BioAssay AID1224830 | NIAID, 2016", "purpose": "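Genes whose knock-down alters the TNF-alpha reporter response to LPS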 (primary screen)", "cell system": "human THP-1 monocytic leukaemia cells, TNF dual-luciferase reporter clone, PMA-differentiated to macrophage-like cells", "reagents": "siRNA pool against human genes, 50 nM", "duration": "LPS for 4 h, given about 3 days after siRNA transfection", "treatment": "bacterial LPS (TLR4 ligand), 10 ng/ml", "measured": "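Ratio of firefly to renilla light, scaled to the plate median and expressed as a robust z-score per replicate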", "reading the numbers": "TNF reporter robust z-score: higher = stronger TNF reporter response to LPS", "active means": "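a well is active when its z-score exceeds 2.8 or falls below -1.5; control wells carry no call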", "note": "The whole screen tested about 18,000 reagents; shown is a random part of them. Of all reagents, about 2,900 (16%) got an active call. 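Calls are made per well; low scores hint the gene aids the LPS response, high scores that it dampens it.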 Entries without a mark were called inactive. Repeated entries: four replicate wells of each siRNA pool."}
{"gene knocked down": "STC1 (stanniocalcin 1)", "TNF reporter robust z-score": 0.98}
{"gene knocked down": "STC1 (stanniocalcin 1)", "TNF reporter robust z-score": 0.78}
{"gene knocked down": "STC1 (stanniocalcin 1)", "TNF reporter robust z-score": 1.83}
{"gene knocked down": "STC1 (stanniocalcin 1)", "TNF reporter robust z-score": -1.07}
{"gene knocked down": "TIPARP (TCDD inducible poly(ADP-ribose) polymerase)", "TNF reporter robust z-score": "-2.13 (active)"}
{"gene knocked down": "TIPARP (TCDD inducible poly(ADP-ribose) polymerase)", "TNF reporter robust z-score": "-2.18 (active)"}
{"gene knocked down": "TIPARP (TCDD inducible poly(ADP-ribose) polymerase)", "TNF reporter robust z-score": "-2.14 (active)"}
{"gene knocked down": "TIPARP (TCDD inducible poly(ADP-ribose) polymerase)", "TNF reporter robust z-score": "-2.04 (active)"}
{"gene knocked down": "SKA2 (spindle and kinetochore associated complex subunit 2)", "TNF reporter robust z-score": 0.82}
{"gene knocked down": "SKA2 (spindle and kinetochore associated complex subunit 2)", "TNF reporter robust z-score": 1.32}
{"gene knocked down": "SKA2 (spindle and kinetochore associated complex subunit 2)", "TNF reporter robust z-score": 1.41}
{"gene knocked down": "SKA2 (spindle and kinetochore associated complex subunit 2)", "TNF reporter robust z-score": 1.11}
{"gene knocked down": "ERMN (ermin)", "TNF reporter robust z-score": 1.79}
{"gene knocked down": "ERMN (ermin)", "TNF reporter robust z-score": 2.15}
{"gene knocked down": "ERMN (ermin)", "TNF reporter robust z-score": 1.43}
{"gene knocked down": "ERMN (ermin)", "TNF reporter robust z-score": -0.44}
{"gene knocked down": "IGLL1 (immunoglobulin lambda like polypeptide 1)", "TNF reporter robust z-score": 0.22}
{"gene knocked down": "IGLL1 (immunoglobulin lambda like polypeptide 1)", "TNF reporter robust z-score": 0.29}
{"gene knocked down": "IGLL1 (immunoglobulin lambda like polypeptide 1)", "TNF reporter robust z-score": 1.32}

Active calls, of those listed so far:
{"gene knocked down": "TIPARP (TCDD inducible poly(ADP-ribose) polymerase)", "TNF reporter robust z-score": "-2.13 (active)"}
{"gene knocked down": "TIPARP (TCDD inducible poly(ADP-ribose) polymerase)", "TNF reporter robust z-score": "-2.18 (active)"}
{"gene knocked down": "TIPARP (TCDD inducible poly(ADP-ribose) polymerase)", "TNF reporter robust z-score": "-2.14 (active)"}
{"gene knocked down": "TIPARP (TCDD inducible poly(ADP-ribose) polymerase)", "TNF reporter robust z-score": "-2.04 (active)"}

The listing continues:
{"gene knocked down": "COMP (cartilage oligomeric matrix protein)", "TNF reporter robust z-score": 0.5}
{"gene knocked down": "COMP (cartilage oligomeric matrix protein)", "TNF reporter robust z-score": 0.17}
{"gene knocked down": "COMP (cartilage oligomeric matrix protein)", "TNF reporter robust z-score": 0.48}
{"gene knocked down": "COMP (cartilage oligomeric matrix protein)", "TNF reporter robust z-score": 1.6}
{"gene knocked down": "GCLM (glutamate-cysteine ligase modifier subunit)", "TNF reporter robust z-score": -0.05}
{"gene knocked down": "GCLM (glutamate-cysteine ligase modifier subunit)", "TNF reporter robust z-score": -0.44}
{"gene knocked down": "GCLM (glutamate-cysteine ligase modifier subunit)", "TNF reporter robust z-score": -0.09}
{"gene knocked down": "GCLM (glutamate-cysteine ligase modifier subunit)", "TNF reporter robust z-score": 0.13}
{"gene knocked down": "UTP23 (UTP23 small subunit processome component)", "TNF reporter robust z-score": -0.6}
{"gene knocked down": "UTP23 (UTP23 small subunit processome component)", "TNF reporter robust z-score": -1.01}
{"gene knocked down": "UTP23 (UTP23 small subunit processome component)", "TNF reporter robust z-score": -1.16}
{"gene knocked down": "ZNF445 (zinc finger protein 445)", "TNF reporter robust z-score": -0.6}
{"gene knocked down": "ZNF445 (zinc finger protein 445)", "TNF reporter robust z-score": 0.67}
{"gene knocked down": "ZNF445 (zinc finger protein 445)", "TNF reporter robust z-score": -0.8}
{"gene knocked down": "ZNF445 (zinc finger protein 445)", "TNF reporter robust z-score": 0.4}
{"gene knocked down": "RIOX2 (ribosomal oxygenase 2)", "TNF reporter robust z-score": -0.44}
{"gene knocked down": "RIOX2 (ribosomal oxygenase 2)", "TNF reporter robust z-score": 0.69}
{"gene knocked down": "RIOX2 (ribosomal oxygenase 2)", "TNF reporter robust z-score": -0.26}
{"gene knocked down": "RIOX2 (ribosomal oxygenase 2)", "TNF reporter robust z-score": -0.8}
{"gene knocked down": "PPP2R5A (protein phosphatase 2 regulatory subunit B'alpha)", "TNF reporter robust z-score": -1.22}
{"gene knocked down": "PPP2R5A (protein phosphatase 2 regulatory subunit B'alpha)", "TNF reporter robust z-score": -1.06}
{"gene knocked down": "PPP2R5A (protein phosphatase 2 regulatory subunit B'alpha)", "TNF reporter robust z-score": -0.73}
{"gene knocked down": "PPP2R5A (protein phosphatase 2 regulatory subunit B'alpha)", "TNF reporter robust z-score": 0.12}
{"gene knocked down": "NR3C2 (nuclear receptor subfamily 3 group C member 2)", "TNF reporter robust z-score": -0.52}
{"gene knocked down": "NR3C2 (nuclear receptor subfamily 3 group C member 2)", "TNF reporter robust z-score": 0.37}
{"gene knocked down": "NR3C2 (nuclear receptor subfamily 3 group C member 2)", "TNF reporter robust z-score": 0.67}
{"gene knocked down": "NR3C2 (nuclear receptor subfamily 3 group C member 2)", "TNF reporter robust z-score": 1.85}
{"gene knocked down": "MFSD12 (major facilitator superfamily domain containing 12)", "TNF reporter robust z-score": 0.24}
{"gene knocked down": "MFSD12 (major facilitator superfamily domain containing 12)", "TNF reporter robust z-score": "2.84 (active)"}
{"gene knocked down": "MFSD12 (major facilitator superfamily domain containing 12)", "TNF reporter robust z-score": 1.56}
{"gene knocked down": "MFSD12 (major facilitator superfamily domain containing 12)", "TNF reporter robust z-score": 2.29}
